Source: the supplement of paper PMC10849652
The list shows a part of the results.

The chains behind the UniProt entries cited, without tags or fusion partners. Where a name states a change or a piece, a line headed by the entry shows the natural chain unless it says otherwise.
UniProt P56192: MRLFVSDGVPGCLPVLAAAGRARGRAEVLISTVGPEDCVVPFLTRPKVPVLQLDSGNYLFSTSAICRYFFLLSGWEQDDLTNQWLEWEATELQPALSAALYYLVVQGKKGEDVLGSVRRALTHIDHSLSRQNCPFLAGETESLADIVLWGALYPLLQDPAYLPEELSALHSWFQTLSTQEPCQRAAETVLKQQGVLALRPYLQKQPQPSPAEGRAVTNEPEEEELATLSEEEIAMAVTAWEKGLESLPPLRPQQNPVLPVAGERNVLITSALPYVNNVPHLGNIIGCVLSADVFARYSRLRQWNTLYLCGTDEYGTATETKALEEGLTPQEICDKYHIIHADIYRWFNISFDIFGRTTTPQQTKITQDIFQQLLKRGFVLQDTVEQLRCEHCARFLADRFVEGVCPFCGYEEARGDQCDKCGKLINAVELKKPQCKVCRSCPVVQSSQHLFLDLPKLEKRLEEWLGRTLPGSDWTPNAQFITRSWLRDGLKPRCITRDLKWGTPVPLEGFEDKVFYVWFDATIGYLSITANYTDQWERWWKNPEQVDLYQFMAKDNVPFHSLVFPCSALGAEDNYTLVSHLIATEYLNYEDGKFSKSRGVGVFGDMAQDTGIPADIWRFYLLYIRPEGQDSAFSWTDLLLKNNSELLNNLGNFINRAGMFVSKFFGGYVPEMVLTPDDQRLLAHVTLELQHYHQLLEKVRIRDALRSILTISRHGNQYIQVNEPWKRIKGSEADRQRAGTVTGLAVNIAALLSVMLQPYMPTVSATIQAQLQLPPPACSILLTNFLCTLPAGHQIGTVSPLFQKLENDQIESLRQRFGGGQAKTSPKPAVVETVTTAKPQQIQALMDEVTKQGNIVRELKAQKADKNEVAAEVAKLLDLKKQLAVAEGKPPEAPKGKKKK
UniProt Q9UBF1: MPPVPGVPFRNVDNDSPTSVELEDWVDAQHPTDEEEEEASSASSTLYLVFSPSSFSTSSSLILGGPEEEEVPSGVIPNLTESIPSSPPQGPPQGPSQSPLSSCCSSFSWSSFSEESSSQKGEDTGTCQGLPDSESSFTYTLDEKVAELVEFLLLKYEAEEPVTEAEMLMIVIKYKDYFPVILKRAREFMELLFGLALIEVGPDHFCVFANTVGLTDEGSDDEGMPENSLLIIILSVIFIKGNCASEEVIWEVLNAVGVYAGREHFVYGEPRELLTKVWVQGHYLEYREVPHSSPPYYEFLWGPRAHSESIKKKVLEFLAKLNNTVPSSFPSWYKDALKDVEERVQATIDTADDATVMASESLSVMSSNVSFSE
UniProt Q9NU23: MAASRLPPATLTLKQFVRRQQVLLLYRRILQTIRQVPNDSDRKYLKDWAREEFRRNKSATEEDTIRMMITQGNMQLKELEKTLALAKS
UniProt Q15013: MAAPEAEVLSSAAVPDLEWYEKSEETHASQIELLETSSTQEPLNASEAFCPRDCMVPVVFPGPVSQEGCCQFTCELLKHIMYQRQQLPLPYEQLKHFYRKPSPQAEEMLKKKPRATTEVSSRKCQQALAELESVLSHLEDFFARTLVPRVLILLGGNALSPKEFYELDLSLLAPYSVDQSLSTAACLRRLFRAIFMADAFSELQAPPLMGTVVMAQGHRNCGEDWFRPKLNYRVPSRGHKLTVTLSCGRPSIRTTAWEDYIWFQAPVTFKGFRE
UniProt P27361, whole entry, looked up: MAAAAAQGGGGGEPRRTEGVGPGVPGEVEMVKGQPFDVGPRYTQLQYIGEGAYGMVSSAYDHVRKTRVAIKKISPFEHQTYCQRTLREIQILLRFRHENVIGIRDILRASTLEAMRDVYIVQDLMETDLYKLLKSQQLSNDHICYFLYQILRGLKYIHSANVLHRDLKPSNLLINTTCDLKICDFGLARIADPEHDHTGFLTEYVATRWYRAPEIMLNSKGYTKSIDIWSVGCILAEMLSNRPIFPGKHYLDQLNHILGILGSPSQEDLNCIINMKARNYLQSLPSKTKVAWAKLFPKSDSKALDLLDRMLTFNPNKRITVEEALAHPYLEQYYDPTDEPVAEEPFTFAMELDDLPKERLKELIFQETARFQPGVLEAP
UniProt Q9Y383: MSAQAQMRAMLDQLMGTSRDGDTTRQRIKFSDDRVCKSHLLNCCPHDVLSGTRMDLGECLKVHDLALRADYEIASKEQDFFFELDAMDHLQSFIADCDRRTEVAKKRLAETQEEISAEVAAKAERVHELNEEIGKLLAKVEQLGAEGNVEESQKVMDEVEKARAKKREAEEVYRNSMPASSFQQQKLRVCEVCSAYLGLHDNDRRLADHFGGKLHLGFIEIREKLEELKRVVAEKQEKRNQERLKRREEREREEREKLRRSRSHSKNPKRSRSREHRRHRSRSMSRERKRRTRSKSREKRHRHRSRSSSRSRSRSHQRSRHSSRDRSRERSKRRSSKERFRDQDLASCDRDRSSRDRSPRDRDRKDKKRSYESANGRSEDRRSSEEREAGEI
UniProt O15021: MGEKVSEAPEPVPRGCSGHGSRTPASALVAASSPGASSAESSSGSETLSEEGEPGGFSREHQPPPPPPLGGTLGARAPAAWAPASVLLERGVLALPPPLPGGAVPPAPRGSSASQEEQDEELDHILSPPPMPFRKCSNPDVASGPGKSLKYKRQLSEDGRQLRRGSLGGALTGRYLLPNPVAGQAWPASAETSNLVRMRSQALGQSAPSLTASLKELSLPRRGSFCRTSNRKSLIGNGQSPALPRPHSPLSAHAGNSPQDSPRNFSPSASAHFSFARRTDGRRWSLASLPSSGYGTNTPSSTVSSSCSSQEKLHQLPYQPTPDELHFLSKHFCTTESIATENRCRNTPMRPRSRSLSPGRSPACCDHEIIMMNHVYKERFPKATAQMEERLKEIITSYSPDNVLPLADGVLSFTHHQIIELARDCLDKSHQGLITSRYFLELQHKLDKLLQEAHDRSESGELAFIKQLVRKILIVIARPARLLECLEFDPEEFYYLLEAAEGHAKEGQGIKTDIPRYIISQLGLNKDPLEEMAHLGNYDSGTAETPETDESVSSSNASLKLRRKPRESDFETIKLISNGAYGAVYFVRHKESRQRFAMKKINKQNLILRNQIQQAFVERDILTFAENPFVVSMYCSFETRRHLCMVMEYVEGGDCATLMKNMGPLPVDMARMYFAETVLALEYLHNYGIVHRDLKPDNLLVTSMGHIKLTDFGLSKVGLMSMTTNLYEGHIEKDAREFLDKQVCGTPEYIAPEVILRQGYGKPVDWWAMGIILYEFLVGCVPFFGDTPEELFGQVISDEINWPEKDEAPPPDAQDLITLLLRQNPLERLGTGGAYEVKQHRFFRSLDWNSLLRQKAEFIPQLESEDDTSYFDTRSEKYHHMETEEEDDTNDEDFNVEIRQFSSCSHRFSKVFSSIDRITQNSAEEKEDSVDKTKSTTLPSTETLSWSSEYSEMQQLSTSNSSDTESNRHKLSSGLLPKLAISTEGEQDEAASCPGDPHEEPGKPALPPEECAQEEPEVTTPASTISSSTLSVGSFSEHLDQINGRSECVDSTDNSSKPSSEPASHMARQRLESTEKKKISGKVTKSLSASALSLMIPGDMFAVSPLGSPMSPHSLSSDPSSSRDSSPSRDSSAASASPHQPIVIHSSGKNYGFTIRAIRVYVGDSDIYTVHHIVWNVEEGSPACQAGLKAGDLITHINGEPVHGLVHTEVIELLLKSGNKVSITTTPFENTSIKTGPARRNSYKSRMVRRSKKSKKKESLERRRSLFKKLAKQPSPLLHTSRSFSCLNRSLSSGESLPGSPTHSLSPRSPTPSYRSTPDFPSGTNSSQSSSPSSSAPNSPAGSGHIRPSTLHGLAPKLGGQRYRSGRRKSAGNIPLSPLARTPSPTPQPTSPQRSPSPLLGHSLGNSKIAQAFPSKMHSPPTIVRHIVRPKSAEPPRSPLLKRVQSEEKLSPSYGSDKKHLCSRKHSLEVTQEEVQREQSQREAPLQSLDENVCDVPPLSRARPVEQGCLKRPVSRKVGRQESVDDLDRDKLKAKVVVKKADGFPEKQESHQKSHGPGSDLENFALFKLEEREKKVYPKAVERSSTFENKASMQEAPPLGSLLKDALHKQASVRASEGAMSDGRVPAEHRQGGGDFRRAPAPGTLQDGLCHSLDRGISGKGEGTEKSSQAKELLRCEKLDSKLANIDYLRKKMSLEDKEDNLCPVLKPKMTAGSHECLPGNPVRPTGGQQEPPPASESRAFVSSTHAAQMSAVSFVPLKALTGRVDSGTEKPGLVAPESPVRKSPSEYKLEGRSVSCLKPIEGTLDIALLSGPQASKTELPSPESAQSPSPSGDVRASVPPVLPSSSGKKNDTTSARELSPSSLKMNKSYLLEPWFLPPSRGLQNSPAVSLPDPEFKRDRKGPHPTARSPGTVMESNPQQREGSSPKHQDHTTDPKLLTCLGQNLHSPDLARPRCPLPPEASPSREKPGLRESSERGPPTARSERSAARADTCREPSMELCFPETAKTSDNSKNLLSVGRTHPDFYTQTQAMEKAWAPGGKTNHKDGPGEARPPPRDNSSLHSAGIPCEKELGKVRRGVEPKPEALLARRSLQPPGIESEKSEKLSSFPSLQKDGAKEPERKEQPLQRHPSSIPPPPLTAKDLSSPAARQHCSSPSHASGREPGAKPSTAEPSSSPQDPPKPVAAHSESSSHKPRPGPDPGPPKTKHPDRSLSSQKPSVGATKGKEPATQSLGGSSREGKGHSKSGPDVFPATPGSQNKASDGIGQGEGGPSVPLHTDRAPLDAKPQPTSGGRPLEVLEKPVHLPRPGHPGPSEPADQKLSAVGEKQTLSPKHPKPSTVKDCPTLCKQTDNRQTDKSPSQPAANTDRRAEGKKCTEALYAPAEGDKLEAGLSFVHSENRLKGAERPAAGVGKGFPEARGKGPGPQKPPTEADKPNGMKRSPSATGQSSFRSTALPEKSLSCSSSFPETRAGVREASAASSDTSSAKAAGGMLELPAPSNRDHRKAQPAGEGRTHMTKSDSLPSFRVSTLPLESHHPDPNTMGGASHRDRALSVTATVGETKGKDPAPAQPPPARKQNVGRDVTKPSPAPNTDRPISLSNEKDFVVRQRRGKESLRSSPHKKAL
UniProt Q9BQ69: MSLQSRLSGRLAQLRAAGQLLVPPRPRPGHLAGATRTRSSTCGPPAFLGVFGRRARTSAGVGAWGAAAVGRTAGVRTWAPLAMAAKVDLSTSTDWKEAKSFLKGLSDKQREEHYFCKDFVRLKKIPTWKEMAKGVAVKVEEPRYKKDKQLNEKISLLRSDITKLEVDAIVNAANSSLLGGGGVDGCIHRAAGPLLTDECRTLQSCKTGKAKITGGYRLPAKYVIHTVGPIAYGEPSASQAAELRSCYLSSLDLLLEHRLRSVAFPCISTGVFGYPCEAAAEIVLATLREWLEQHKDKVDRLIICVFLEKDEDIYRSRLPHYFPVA
UniProt Q8WVR3: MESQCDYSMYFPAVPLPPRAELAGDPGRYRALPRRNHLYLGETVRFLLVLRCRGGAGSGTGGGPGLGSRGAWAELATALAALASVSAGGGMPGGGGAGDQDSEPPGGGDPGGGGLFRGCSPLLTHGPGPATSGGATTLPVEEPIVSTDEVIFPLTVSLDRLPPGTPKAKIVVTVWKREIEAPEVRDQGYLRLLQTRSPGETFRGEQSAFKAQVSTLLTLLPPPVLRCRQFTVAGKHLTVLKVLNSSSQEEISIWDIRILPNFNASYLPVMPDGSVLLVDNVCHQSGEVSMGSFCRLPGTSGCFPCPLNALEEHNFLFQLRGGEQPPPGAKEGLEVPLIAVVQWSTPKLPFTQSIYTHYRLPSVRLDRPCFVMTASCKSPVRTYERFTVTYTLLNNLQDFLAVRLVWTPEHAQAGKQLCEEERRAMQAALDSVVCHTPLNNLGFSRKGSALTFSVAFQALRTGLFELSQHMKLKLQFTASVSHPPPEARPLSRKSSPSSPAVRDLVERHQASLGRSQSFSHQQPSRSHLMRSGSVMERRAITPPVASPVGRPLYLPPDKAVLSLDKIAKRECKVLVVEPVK
UniProt P46734: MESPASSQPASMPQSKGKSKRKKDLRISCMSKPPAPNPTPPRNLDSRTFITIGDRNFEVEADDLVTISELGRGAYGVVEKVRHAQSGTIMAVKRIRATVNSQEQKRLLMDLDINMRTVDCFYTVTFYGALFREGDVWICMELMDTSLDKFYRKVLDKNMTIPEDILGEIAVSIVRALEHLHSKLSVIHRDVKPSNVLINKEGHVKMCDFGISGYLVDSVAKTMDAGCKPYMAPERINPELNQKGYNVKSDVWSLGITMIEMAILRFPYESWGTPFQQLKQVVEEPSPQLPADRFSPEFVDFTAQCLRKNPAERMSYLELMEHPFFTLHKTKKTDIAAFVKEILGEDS
UniProt Q96A72, whole entry, looked up: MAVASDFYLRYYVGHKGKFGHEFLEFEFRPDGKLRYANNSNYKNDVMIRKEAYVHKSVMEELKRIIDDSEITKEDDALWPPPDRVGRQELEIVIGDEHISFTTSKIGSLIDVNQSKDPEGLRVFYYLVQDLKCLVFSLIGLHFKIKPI

Key:
Experiment in all cases: log2 fold change, soluble protein after heating vs DMSO (PISA); higher = thermal stabilisation; K562 lysate, 10 uM; active = over 0.2 and 3.5 SD of the protein, either way, in both replicates (recomputed)
vemurafenib = compound: CCCS(=O)(=O)Nc1ccc(F)c(C(=O)c2c[nH]c3ncc(-c4ccc(Cl)cc4)cc23)c1F [vemurafenib]
In short: (§1)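 Soluble protein was defined as the supernatant remaining after 21,000xg for 90 min, following pooling of heated aliquots and adjustment to 0.5% NP-40 at 4°C. Before that, crude K562 extract at 1 mg/mL protein in PBS pH 7.4 with 1 mM MgCl2 was treated with 10 μM compound for 30 min and heated for 3 min across 48°C-58°C. Quantification used TMTpro 16plex LC-MS/MS with channel sums equalised, and values are log-two fold changes in thermal stability relative to solvent controls from duplicates.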

[1] = compound: CCCS(=O)(=O)Nc1ccc(F)c(C(=O)c2c[nH]c3ncc(Cl)cc23)c1F
In short: as §1

barasertib = compound: CCN(CCCOc1ccc2c(Nc3cc(CC(=O)Nc4cccc(F)c4)[nH]n3)ncnc2c1)CCOP(=O)(O)O [barasertib]
In short: as §1

[2] = compound: CC[C@@H]1C(=O)N(C)c2cnc(Nc3ccc(C(=O)NC4CCN(C)CC4)cc3OC)nc2N1C1CCCC1
In short: as §1

volasertib = compound: CC[C@@H]1C(=O)N(C)c2cnc(Nc3ccc(C(=O)N[C@H]4CC[C@H](N5CCN(CC6CC6)CC5)CC4)cc3OC)nc2N1C(C)C [volasertib]
In short: as §1

[3] = compound: CCn1c(C(=O)N(C2CC2)C2CC2)cc2c3c(ncn3C)c(Nc3cc(C)n(C)n3)nc21
In short: as §1

[4] = compound: CCn1cc(-c2ccnc3[nH]c(-c4cccc(CN(C)C)c4)cc23)c(-c2ccc(NC(=O)N(C)C)cc2)n1
In short: as §1

[5] = compound: CN1CCC(CNc2ccc3ncc(-c4cccc(OC(F)(F)F)c4)n3n2)CC1
In short: as §1

saracatinib = compound: CN1CCN(CCOc2cc(OC3CCOCC3)c3c(Nc4c(Cl)ccc5c4OCO5)ncnc3c2)CC1 [saracatinib]
In short: as §1

sotrastaurin = compound: CN1CCN(c2nc(C3=C(c4c[nH]c5ccccc45)C(=O)NC3=O)c3ccccc3n2)CC1 [sotrastaurin]
In short: as §1

alvocidib = compound: CN1CC[C@H](c2c(O)cc(O)c3c(=O)cc(-c4ccccc4Cl)oc23)[C@H](O)C1 [alvocidib]
In short: as §1

Tubastatin A = compound: CN1CCc2c(c3ccccc3n2Cc2ccc(C(=O)NO)cc2)C1 [Tubastatin A]
In short: as §1

[6] = compound: CNC(=O)C1=CC=CC=C1NC2=NC(=NC=C2Cl)NC3=C(C=C(C=C3)N4CCOCC4)OC
In short: as §1

defactinib = compound: CNC(=O)c1ccc(Nc2ncc(C(F)(F)F)c(NCc3nccnc3N(C)S(C)(=O)=O)n2)cc1 [defactinib]
In short: as §1

[7] = compound: CNc1nc(-c2ccc3c(N)n[nH]c3c2)cc(N2C[C@@H](C(=O)NC3CCCCC3)CC[C@H]2C)n1
In short: as §1

encorafenib = compound: COC(=O)N[C@@H](C)CNc1nccc(-c2cn(C(C)C)nc2-c2cc(Cl)cc(NS(C)(=O)=O)c2F)n1 [encorafenib]
In short: as §1

[8] = compound: COC(=O)[C@H](CCSC)NC(=O)C1=C(C=C(C=C1)NC[C@H](CS)N)C2=CC=CC=C2
In short: as §1

alisertib = compound: COc1cc(Nc2ncc3c(n2)-c2ccc(Cl)cc2C(c2c(F)cccc2OC)=NC3)ccc1C(=O)O [alisertib]
In short: as §1

[9] = compound: COc1cc2nc(-c3cc(F)ccc3O)nc(N[C@@H]3CNC[C@H]3C(C)(C)O)c2cc1OC
In short: as §1

gefitinib = compound: COc1cc2ncnc(Nc3ccc(F)c(Cl)c3)c2cc1OCCCN1CCOCC1 [gefitinib]
In short: as §1

| Target | log2 fold change (vemurafenib) | log2 fold change [1] | log2 fold change (barasertib) | log2 fold change [2] | log2 fold change (volasertib) | log2 fold change [3] | log2 fold change [4] | log2 fold change [5] | log2 fold change (saracatinib) | log2 fold change (sotrastaurin) | log2 fold change (alvocidib) | log2 fold change (Tubastatin A) | log2 fold change [6] | log2 fold change (defactinib) | log2 fold change [7] | log2 fold change (encorafenib) | log2 fold change [8] | log2 fold change (alisertib) | log2 fold change [9] | log2 fold change (gefitinib) |
| --- | --- | --- | --- | --- | --- | --- | --- | --- | --- | --- | --- | --- | --- | --- | --- | --- | --- | --- | --- | --- |
| MAP1S (UniProt Q66K74) | inactive: -0.004 | inactive: 0.041 | inactive: 0.002 | inactive: -0.035 | inactive: -0.024 | inactive: -0.01 | inactive: -0.056 | inactive: -0.022 | inactive: 0.038 | inactive: 0.037 | inactive: 0.027 | inactive: -0.072 | inactive: -0.01 | inactive: 0.018 | inactive: -0.015 | inactive: 0.008 | inactive: 0.06 | inactive: 0.006 | inactive: -0.008 | inactive: -0.021 |
| MARS (UniProt P56192) | inactive: 0.042 | inactive: 0.005 | inactive: -0.005 | inactive: -0.079 | inactive: -0.069 | inactive: 0.028 | inactive: -0.041 | inactive: -0.02 | inactive: 0.009 | inactive: 0.023 | inactive: 0.015 | inactive: -0.095 | inactive: 0.018 | inactive: 0.008 | inactive: -0.031 | inactive: -0.012 | inactive: 0.118 | inactive: 0.026 | inactive: 0.011 | inactive: -0.048 |
| MAGEC2 (UniProt Q9UBF1) | inactive: 0.012 | inactive: -0.01 | inactive: -0.004 | inactive: -0.051 | inactive: -0.005 | inactive: -0.025 | inactive: -0.178 | inactive: 0.032 | inactive: 0.01 | inactive: 0.029 | inactive: -0.046 | inactive: -0.011 | inactive: -0.018 | inactive: 0 | inactive: -0.05 | inactive: 0.007 | inactive: -0.037 | inactive: -0.005 | inactive: 0.001 | inactive: 0.032 |
| LYRM2 (UniProt Q9NU23) | inactive: 0.01 | inactive: 0.007 | inactive: 0.04 | inactive: 0.036 | inactive: 0.029 | inactive: -0.005 | inactive: -0.083 | inactive: -0.022 | inactive: 0.006 | inactive: 0.118 | inactive: 0.003 | inactive: 0.048 | inactive: -0.019 | inactive: 0.027 | inactive: 0.045 | inactive: -0.024 | inactive: 0.028 | inactive: 0.024 | inactive: -0.031 | inactive: -0.005 |
| LYSMD3 (UniProt Q7Z3D4) | inactive: 0.025 | inactive: -0.05 | inactive: -0.003 | inactive: 0.074 | inactive: 0.056 | inactive: -0.013 | inactive: -0.094 | inactive: 0.235 | inactive: 0.056 | inactive: 0.002 | inactive: -0.001 | inactive: 0.127 | inactive: -0.045 | inactive: -0.062 | inactive: 0.092 | inactive: 0.031 | inactive: -0.124 | inactive: 0.001 | inactive: 0.112 | inactive: 0.254 |
| MAD2L1BP isoform 3 (UniProt Q15013) | inactive: 0.003 | inactive: 0.009 | inactive: 0.054 | inactive: -0.076 | inactive: -0.042 | inactive: 0.022 | inactive: 0 | inactive: 0.03 | inactive: 0.021 | inactive: 0.01 | inactive: 0.047 | inactive: -0.135 | inactive: 0.088 | inactive: 0.068 | inactive: -0.012 | inactive: 0.138 | inactive: 0.234 | inactive: 0.052 | inactive: -0.009 | inactive: -0.054 |
| MAPK3 (UniProt P27361) | inactive: 0.013 | inactive: -0.024 | inactive: -0.026 | inactive: 0.01 | inactive: -0.011 | inactive: -0.031 | inactive: 0 | inactive: 0.026 | inactive: 0 | inactive: -0.017 | inactive: 0.018 | inactive: 0.037 | active: 0.29 | inactive: 0.061 | inactive: 0.079 | inactive: -0.035 | inactive: 0.05 | inactive: -0.028 | inactive: 0.052 | inactive: -0.018 |
| MAN2A2 (UniProt P49641) | inactive: 0.036 | inactive: 0.013 | inactive: 0.084 | inactive: 0 | inactive: 0.001 | inactive: 0.002 | inactive: -0.049 | inactive: -0.043 | inactive: 0.004 | inactive: 0.002 | inactive: 0.051 | inactive: 0.021 | inactive: 0.013 | inactive: -0.087 | inactive: -0.014 | inactive: 0.053 | inactive: -0.037 | inactive: 0.005 | inactive: -0.01 | inactive: 0.022 |
| LUC7L2 (UniProt Q9Y383) | inactive: -0.02 | inactive: -0.011 | inactive: -0.013 | inactive: -0.042 | inactive: 0.032 | inactive: 0.004 | inactive: 0.147 | inactive: -0.013 | inactive: -0.009 | inactive: -0.052 | inactive: -0.081 | inactive: 0.03 | inactive: -0.039 | inactive: -0.063 | inactive: -0.058 | inactive: 0.026 | inactive: -0.029 | inactive: 0.001 | inactive: -0.005 | inactive: -0.003 |
| MAST4 (UniProt O15021) | inactive: -0.085 | inactive: -0.049 | inactive: 0.051 | inactive: -0.126 | inactive: -0.017 | inactive: 0.121 | inactive: -0.204 | inactive: 0.059 | inactive: -0.001 | inactive: -0.015 | inactive: 0.042 | inactive: -0.11 | inactive: 0.394 | inactive: 0.282 | inactive: -0.173 | inactive: -0.036 | inactive: 0.006 | inactive: -0.043 | inactive: 0.032 | inactive: -0.066 |
| MACROD1 (UniProt Q9BQ69) | inactive: 0.016 | inactive: 0.043 | inactive: -0.002 | inactive: 0.033 | inactive: -0.015 | inactive: -0.012 | inactive: -0.043 | inactive: -0.014 | inactive: 0.008 | inactive: 0.002 | inactive: 0.12 | inactive: -0.104 | inactive: 0.012 | inactive: 0.039 | inactive: 0.015 | inactive: 0.029 | inactive: -0.074 | inactive: -0.037 | inactive: -0.001 | inactive: 0.033 |
| MAP11 (UniProt Q8WVR3) | inactive: -0.032 | inactive: 0.044 | inactive: 0.07 | inactive: 0.129 | inactive: -0.079 | inactive: 0.086 | inactive: 0.049 | inactive: 0.06 | inactive: 0.033 | inactive: -0.039 | inactive: -0.117 | inactive: -0.091 | inactive: 0.021 | inactive: 0.076 | inactive: 0.004 | inactive: -0.058 | inactive: -0.084 | inactive: -0.001 | inactive: -0.025 | inactive: -0.046 |
| LZIC isoform 2 (UniProt Q8WZA0) | inactive: -0.058 | inactive: -0.011 | inactive: -0.017 | inactive: 0.038 | inactive: 0.006 | inactive: 0.003 | inactive: 0.013 | inactive: 0.014 | inactive: 0.022 | inactive: -0.032 | inactive: 0.023 | inactive: 0.042 | inactive: 0.004 | inactive: 0.007 | inactive: 0.023 | inactive: -0.013 | inactive: -0.044 | inactive: 0.002 | inactive: -0.002 | inactive: -0.018 |
| MAPK8IP3 (UniProt Q9UPT6) | inactive: -0.064 | inactive: -0.012 | inactive: -0.019 | inactive: -0.06 | inactive: -0.027 | inactive: 0.011 | inactive: 0.038 | inactive: 0.013 | inactive: 0.021 | inactive: 0.069 | inactive: 0.022 | inactive: 0.017 | inactive: 0.018 | inactive: 0.018 | inactive: -0.026 | inactive: 0.024 | inactive: -0.015 | inactive: 0.02 | inactive: 0.025 | inactive: 0.052 |
| MAP2K3 isoform 3 (UniProt P46734) | inactive: 0.065 | inactive: -0.042 | inactive: 0.032 | inactive: -0.125 | inactive: 0.07 | inactive: -0.063 | inactive: 0.191 | inactive: 0.04 | inactive: 0.113 | inactive: -0.008 | inactive: 0.05 | inactive: -0.066 | inactive: 0.139 | inactive: 0.017 | inactive: -0.055 | inactive: -0.011 | inactive: 0.169 | inactive: 0 | inactive: -0.171 | inactive: -0.087 |
| MAGOHB (UniProt Q96A72) | inactive: 0.018 | inactive: 0.002 | inactive: 0.023 | inactive: -0.034 | inactive: 0.003 | inactive: -0.009 | inactive: -0.199 | inactive: 0.025 | inactive: -0.038 | inactive: -0.017 | inactive: -0.001 | inactive: -0.015 | inactive: -0.018 | inactive: -0.047 | inactive: -0.008 | inactive: -0.05 | inactive: -0.036 | inactive: 0.041 | inactive: -0.019 | inactive: 0.005 |

Reformatted: entries from further up
Target,log2 fold change (vemurafenib),log2 fold change [1],log2 fold change (barasertib),log2 fold change [2],log2 fold change (volasertib),log2 fold change [3],log2 fold change [4],log2 fold change [5],log2 fold change (saracatinib),log2 fold change (sotrastaurin),log2 fold change (alvocidib),log2 fold change (Tubastatin A),log2 fold change [6],log2 fold change (defactinib),log2 fold change [7],log2 fold change (encorafenib),log2 fold change [8],log2 fold change (alisertib),log2 fold change [9],log2 fold change (gefitinib)
MARS (UniProt P56192),inactive: 0.042,inactive: 0.005,inactive: -0.005,inactive: -0.079,inactive: -0.069,inactive: 0.028,inactive: -0.041,inactive: -0.02,inactive: 0.009,inactive: 0.023,inactive: 0.015,inactive: -0.095,inactive: 0.018,inactive: 0.008,inactive: -0.031,inactive: -0.012,inactive: 0.118,inactive: 0.026,inactive: 0.011,inactive: -0.048
MAPK3 (UniProt P27361),inactive: 0.013,inactive: -0.024,inactive: -0.026,inactive: 0.01,inactive: -0.011,inactive: -0.031,inactive: 0,inactive: 0.026,inactive: 0,inactive: -0.017,inactive: 0.018,inactive: 0.037,active: 0.29,inactive: 0.061,inactive: 0.079,inactive: -0.035,inactive: 0.05,inactive: -0.028,inactive: 0.052,inactive: -0.018
MACROD1 (UniProt Q9BQ69),inactive: 0.016,inactive: 0.043,inactive: -0.002,inactive: 0.033,inactive: -0.015,inactive: -0.012,inactive: -0.043,inactive: -0.014,inactive: 0.008,inactive: 0.002,inactive: 0.12,inactive: -0.104,inactive: 0.012,inactive: 0.039,inactive: 0.015,inactive: 0.029,inactive: -0.074,inactive: -0.037,inactive: -0.001,inactive: 0.033
MAGOHB (UniProt Q96A72),inactive: 0.018,inactive: 0.002,inactive: 0.023,inactive: -0.034,inactive: 0.003,inactive: -0.009,inactive: -0.199,inactive: 0.025,inactive: -0.038,inactive: -0.017,inactive: -0.001,inactive: -0.015,inactive: -0.018,inactive: -0.047,inactive: -0.008,inactive: -0.05,inactive: -0.036,inactive: 0.041,inactive: -0.019,inactive: 0.005
